Test results as given in PubChem BioAssay (EPA / NIEHS).
Inconclusive results, whose numbers are uncertain, are shown with a selection of clear calls. A potency beside an inconclusive call is a rough fit, not a confirmed value. The source made the active and inactive calls. The calls were made as follows: active = hit-call score of the fitted dose curve at least 0.9, where 1 is the maximum; inconclusive = response in the unintended direction; inactive = score below 0.9.

assay: STM_H9_NormalizedViability: Cytotoxicity Assessment at 120 hours in the Stemina devTOX quickPredict H9 human embryonic stem cell (hESC)-based Assay (AID 2283784)
Procedure, shortened: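 Chemicals are tested blinded on H9 human embryonic stem cells in the pluripotent state, with medium exchanged daily. After background correction, fluorescence from CellTiter-Fluor is scaled against 0.1% DMSO wells, and decreases are scored.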

| Compound | AC50 |
| --- | --- |
| COS(C)(=O)=O | active: 70.5 µM |
| O=NO | inconclusive: 18.1 µM |
| Nc1ccn([C@@H]2O[C@H](CO)[C@@H](O)[C@@H]2O)c(=O)n1 | active: 0.27 µM |
| O=C(Nc1ccc([N+](=O)[O-])cc1Cl)c1cc(Cl)ccc1O | inconclusive: 0.00021 µM |
